This sample is rich in variants without activity.
B1: tRNA (parent)
chain: GUUCCGUUGGCGUAAUGGUAACGCGUCUCCCUCCUAAGGAGAAGACUGCGGGUUCGAGUCCCGUACGGAACG

Variants of: B1
Test: yeast fitness relative to wild type (ratio to wild type); higher = fitter; tRNA-Arg(CCU), competitive growth, 37 C, YPD
Summary of the method: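 Genotype frequency changes were the basis for Darwinian fitness relative to wild type. The frequencies came from 100-nucleotide paired-end sequencing of gene amplicons from the start population and each end population of pooled yeast strains with tRNA-Arg(CCU) gene variants at the native locus. Competition ran in YPD at 37°C for 24 hours in six replicates, genotypes needed ≥ 100 starting reads, and estimates < 0.5 were set to 0.5.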

Row | Variant | yeast fitness
1 | GUUCCGUUGCCGUAAUGGUAACGCGUCUCCCUCCUAAGGAGAAGACAACGGGUUCGAGUCCCGUACGGAACG [G10C U47A G48A] | 0.568
2 | GUUCCGUUGCCGUAAUGGUAACGCGUCUCCCUCCUAAGGAGAAGACCGCGGGUUCGAGUCCCGUACGGAACG [G10C U47C] | 0.695
3 | GUUCCGUUGCCGUAAUGGUAACGCGUCUCCCUCCUAAGGAGAAGACGGCGGGUUCGGGUCCCGUACGGAACG [G10C U47G A57G] | ≤ 0.5
4 | GUUCCGUUGUCGUAAUGGUAACGCGUCUCCCUCCUAAGGGGAAGACUGCGGGUUCGAAUCCCGUACGCAACG [G10U A40G G58A G68C] | 0.631
5 | GUUCCGUUGUCGUAAUGGUAACGCGUCUCGCUCCUAAGGAGAAGACUGAGGGCUCGAGUCCCGUAGGGAACG [G10U C30G C49A U53C C66G] | ≤ 0.5
6 | GUUCCGUUGUCGUAAUGCUAGCGCGUCUCCCUCCUAAGGAGAAGACUGCGGGUUCGAGUCCCGUACGGAACG [G10U G18C A21G] | ≤ 0.5
7 | GUUCCGUUGGAGUCAUGGUAACGCGUCUCCCUCAUAAGGAGAAGACUGCGGGUUCGAGUCCCGUACAGAGCG [C11A A14C C34A G67A A70G] | ≤ 0.5
8 | GUUCCGUUGGAGUGAUGGUAACGCGUCUCCCUCCUUAGGAGAAGACUGCGGGUUCGAGUCCCGUAAGGAACG [C11A A14G A36U C66A] | ≤ 0.5
9 | GUUCCGUUGGAGUGAUGGUAACGCGUCUCCCUCCUAAGGAGACGACUGCGGGUUCGGACCCCGUACGGAGCG [C11A A14G A43C A57G G58A U59C A70G] | ≤ 0.5
10 | GUUCCGUUGGAGUGAUGGUAACGCGUCUCUCUCCUAAGGAGAAGACUGGGGGUUCGAGUCCCGUACCGAACG [C11A A14G C30U C49G G67C] | ≤ 0.5
11 | GUUCCGUUGGAGUACUGGUAACGGGUCUCCCUCAUAAGGAGAAGACUGCGGGUUCGAGUCCCGUCCGGAACG [C11A A15C C24G C34A A65C] | ≤ 0.5
12 | GUUCCGUUGGAGUAUUGGUCACGCGUCUCCCUCGUAAGGAGAAGACUGCGGGUUCGAGUCCCGUUCGGAACG [C11A A15U A20C C34G A65U] | ≤ 0.5
13 | GUUCCGUUGGAGUAUUGGUAACGGGUCUCCCUCCUAAGGAGCCGACUGCGGGUUCGAGUCCCGUUCGGAACG [C11A A15U C24G A42C A43C A65U] | ≤ 0.5
14 | GUUCCGUUGGAGUAAUGGUUACGCGUCUUCCUGCUAAGGAGAAGACUGCGAGUUCGAGUCCCGUACGGAACG [C11A A20U C29U C33G G51A] | ≤ 0.5
15 | GUUCCGUUGGAGUAAUGGUUACGCGUCGCCCUCCUAAGGAGAAGACUGCGAGUUCGAGUCCUGUACGGAACG [C11A A20U U28G G51A C62U] | ≤ 0.5
16 | GUUCCGUUGGAGUAAUGGUAGGGCGUCUGCCUCCUAAGGAGAAGACUGCGGGUUCGAGUCCUGUACGGAACG [C11A A21G C22G C29G C62U] | ≤ 0.5
17 | GUUCCGUUGGAGUAAUGGUAGCGCGUCUCCGUCCUUAGGAGAAGACUGCGGGUUCGAGUCCCGUUCGGAACG [C11A A21G C31G A36U A65U] | ≤ 0.5
18 | GUUCCGUUGGAGUAAUGGUAGCGCGUCUCCCUCGUAACGAGAAGACUGCGGGUUCGAGUCCGGUACGGCACG [C11A A21G C34G G38C C62G A69C] | ≤ 0.5
19 | GUUCCGUUGGAGUAAUGGUAGCGCGUCUCCCUCCUAAGGAGAACACUGUGGGUUCGUGUCCCAUACGGAACG [C11A A21G G44C C49U A57U G63A] | ≤ 0.5

Row | Variant | yeast fitness
20 | GUUCCGUUGGAGUAAUGGUAACGCGUCUCCCUCCUAAGGCGAAGACUGCGGGUUCGAGUCCCGUACGGAACG [C11A A40C] | 0.708
21 | GUUCCGUUGGAGUAAUGGUAACGCGUCUCCCUCCUAAGGAGCAGACUGCGGGUUCGAAUCCCGUACGGAACG [C11A A42C G58A] | 0.742
22 | GUUCCGUUGGAGUAAUGGUAACGCGUCUCCCUCCUAAGGAGUAGACUGCGGGUUCGAGUCCCGUGGGAAACG [C11A A42U A65G C66G G68A] | ≤ 0.5
23 | GUUCCGUUGGAGUAAUGGUAACGCGUCUCCCUCCUAAGGAGAGGAGUGCGGGUUCGAGUCCCGUUCGGAACG [C11A A43G C46G A65U] | ≤ 0.5
24 | GUUCCGUUGGAGUAAUGGUAACGCGUCUCCCUCCUAAGGAGAAGCCUGCGGGUUCGAGUACGGUACGGAACG [C11A A45C C60A C62G] | ≤ 0.5
25 | GUUCCGUUGGAGUAAUGGUAACGCGUCUCCCUCCUAAGGAGAAGACUGCGGGUUCGUGCCCCGUACGGAACG [C11A A57U U59C] | ≤ 0.5
26 | GUUCCGUUGGAGUAAUGGUAAAGCGUCUGCCUCCUAAGGAGAAGACUGCGGGUUCGAGUCCCGUACGGAACG [C11A C22A C29G] | 0.545
27 | GUUCCGUUGGAGUAAUGGUAAGGCGUCUGCCUCCUAAGGAGAAGACUGCGGGUUUGAGUCCCGUACGGUACG [C11A C22G C29G C55U A69U] | ≤ 0.5
28 | GUUCCGUUGGAGUAAUGGUAAUGCGGCUCCCUCCUAAGGUGAAGACUCCGGGUUCGAGUCCCGUACGGAACG [C11A C22U U26G A40U G48C] | 0.537
29 | GUUCCGUUGGAGUAAUGGUAACGGGUCUCCCUCUUAAGGAGAAGACUGCGGGUUCGAGUCCCGUACGGAACG [C11A C24G C34U] | ≤ 0.5
30 | GUUCCGUUGGAGUAAUGGUAACGGGUCUCCCUCUUAAGGAGAAGACUGCGGGAUCGAGUCCCGUACGCAACG [C11A C24G C34U U53A G68C] | ≤ 0.5
31 | GUUCCGUUGGAGUAAUGGUAACGUGUCUCCCUCCUAAGGAGAAGACUGCGGGUUCGAGGCCCGUACGGCACG [C11A C24U U59G A69C] | ≤ 0.5
32 | GUUCCGUUGGAGUAAUGGUAACGCGUGUCCGUCCUCAGGAGAAGACUGCGGGUUCGAGUCCCCUACGGAACG [C11A C27G C31G A36C G63C] | ≤ 0.5
33 | GUUCCGUUGGAGUAAUGGUAACGCGUGUCCCUCCAAAGGAGAUGACUGCGGGUCCGAGUCCCGUGCGGAACG [C11A C27G U35A A43U U54C A65G] | 0.659
34 | GUUCCGUUGGAGUAAUGGUAACGCGUGUCCCUCCCAAGGAGAAGACUGCAGGUUCGAGUCCCGUACGGAACG [C11A C27G U35C G50A] | ≤ 0.5
35 | GUUCCGUUGGAGUAAUGGUAACGCGUUUCCUUCGUAAGGGGAAGACUGCGGGUUCGAGUCCCCUACGGAACG [C11A C27U C31U C34G A40G G63C] | ≤ 0.5
36 | GUUCCGUUGGAGUAAUGGUAACGCGUCUACCUCCUAAGGAGAAGACUGCGGCUUCGAGUCCCGUACGGAACG [C11A C29A G52C] | ≤ 0.5
37 | GUUCCGUUGGAGUAAUGGUAACGCGUCUGCCCCCUAAGGAGAAGACUGCGGGUUCGAGUCCCGUACGGAACG [C11A C29G U32C] | ≤ 0.5

Source: the RNAGym collection of RNA variant scans (doi:10.1126/science.aae0568)
